Data published in US20110071141A1, “Pesticidial Condensed-Ring Aryl Compounds” (Bayer CropScience AG, priority 2008, published 2011).
Some results were stated once for a whole list of compounds, not compound by compound.

How the values were obtained:
Type in all cases: in vivo
[1] = system: Tetranychus urticae; experiment: Test on Tetranychus urticae (spray test); conditions: active compound concentration 100 ppm; adult mites on pinto bean sprayed; 7 days
[2] = system: Lucilia cuprina larvae; conditions: application rate 100 ppm; larvae in minced horse meat; 2 days
Description: (§1) Solvent: dimethyl sulfoxide
Approximately 20-30 (Lucilia cuprina larvae) are transferred into a test tube containing 1 cm^3 of minced horse meat and 0.5 ml aqueous dilution of test compound. After 2 days, mortality in % is determined.

[3] = system: Ctenocephalides felis; conditions: application rate 100 ppm in cattle blood; adult unfed fleas; 2 days
Description: as §1
Approximately 10 to 15 adult unfed (Ctenocepahlides felis) are placed in flea chambers. […] The blood chamber is heated to 37° C. whereas the flea chamber is kept at room temperature. After 2 days, mortality in % is determined. 100% means that all the fleas have been killed; 0% means that none of the fleas have been killed.

[4] = system: Musca domestica; conditions: application rate 100 ppm; adults; 2 days
Description: as §1
Prior to the assay, a piece or kitchen sponge is soaked with a mixture of sugar and compound solution and placed into a container. 10 adults (Musca domestica) are placed into the container and closed with a perforated lid. After 2 days, mortality in % is determined. 100% means that all the flies have been killed; 0% means that none of the flies have been killed.

[5] = system: Boophilus microplus; conditions: application rate 20 μg/animal injected; adult engorged female ticks; 7 days
Description: as §1
Five adult engorged female ticks (Boophilus microplus) are injected with compound solution into the abdomen. Ticks are transferred into replica plates and incubated in a climate chamber for a period of time. Egg deposition of fertile eggs is monitored. After 7 days, mortality in % is determined. 100% means that all eggs are infertile; 0% means that all eggs are fertile.

SMILES | mortality (acaricidal ratio) [1] [%] | activity (mortality in %) [2] [%] | activity (mortality in %) [3] [%] | activity (mortality in %) [4] [%] | activity (mortality in %; 100% means all eggs infertile) [5] [%]
COC(=O)NC1CCCc2cc(C3=NOC(c4cc(Cl)cc(Cl)c4)(C(F)(F)F)C3)ccc21 (stereo not drawn) [Example 3-239] | ≥ 98 | ≥ 80 | ≥ 80 | ≥ 80 | ≥ 80
CC(=O)NC1CCCc2cc(C3=NOC(c4cc(Cl)c(Cl)c(Cl)c4)(C(F)(F)F)C3)ccc21 (stereo not drawn) [Example 3-253] | ≥ 98 | ≥ 80 | ≥ 80 | ≥ 80 | ≥ 80
CCC(=O)NC1CCCc2cc(C3=NOC(c4cc(Cl)c(Cl)c(Cl)c4)(C(F)(F)F)C3)ccc21 (stereo not drawn) [Example 3-254] | ≥ 98 | ≥ 80 | ≥ 80 | ≥ 80 | ≥ 80
O=C(CC(F)(F)F)NC1CCCc2cc(C3=NOC(c4cc(Cl)c(Cl)c(Cl)c4)(C(F)(F)F)C3)ccc21 (stereo not drawn) [Example 3-256] | ≥ 98 | ≥ 80 | ≥ 80 | ≥ 80 | ≥ 80
O=C(NC1CCCc2cc(C3=NOC(c4cc(Cl)c(Cl)c(Cl)c4)(C(F)(F)F)C3)ccc21)C1CC1 (stereo not drawn) [Example 3-257] | ≥ 98 | ≥ 80 | ≥ 80 | ≥ 80 | ≥ 80
CNC(=O)NC1CCCc2cc(C3=NOC(c4cc(Cl)c(Cl)c(Cl)c4)(C(F)(F)F)C3)ccc21 (stereo not drawn) [Example 3-258] | ≥ 98 | ≥ 80 | ≥ 80 | ≥ 80 | ≥ 80
CCNC(=O)NC1CCCc2cc(C3=NOC(c4cc(Cl)c(Cl)c(Cl)c4)(C(F)(F)F)C3)ccc21 (stereo not drawn) [Example 3-259] | ≥ 98 | ≥ 80 | ≥ 80 | ≥ 80 | ≥ 80
CC(C)NC(=O)NC1CCCc2cc(C3=NOC(c4cc(Cl)c(Cl)c(Cl)c4)(C(F)(F)F)C3)ccc21 (stereo not drawn) [Example 3-261] | ≥ 98 | ≥ 80 | ≥ 80 | ≥ 80 | ≥ 80
C=CCNC(=O)NC1CCCc2cc(C3=NOC(c4cc(Cl)c(Cl)c(Cl)c4)(C(F)(F)F)C3)ccc21 (stereo not drawn) [Example 3-270] | ≥ 98 | ≥ 80 | ≥ 80 | ≥ 80 | ≥ 80
CC(=O)NC1CCCc2cc(C3=NOC(c4cc(C(F)(F)F)cc(C(F)(F)F)c4)(C(F)(F)F)C3)ccc21 (stereo not drawn) [Example 3-302] | ≥ 98 | ≥ 80 | ≥ 80 | ≥ 80 | ≥ 80
CCC(=O)NC1CCCc2cc(C3=NOC(c4cc(C(F)(F)F)cc(C(F)(F)F)c4)(C(F)(F)F)C3)ccc21 (stereo not drawn) [Example 3-303] | ≥ 98 | ≥ 80 | ≥ 80 | ≥ 80 | ≥ 80
O=C(CC(F)(F)F)NC1CCCc2cc(C3=NOC(c4cc(C(F)(F)F)cc(C(F)(F)F)c4)(C(F)(F)F)C3)ccc21 (stereo not drawn) [Example 3-304] | ≥ 98 | ≥ 80 | ≥ 80 | ≥ 80 | ≥ 80
O=C(NC1CCCc2cc(C3=NOC(c4cc(C(F)(F)F)cc(C(F)(F)F)c4)(C(F)(F)F)C3)ccc21)C1CC1 (stereo not drawn) [Example 3-305] | ≥ 98 | ≥ 80 | ≥ 80 | ≥ 80 | ≥ 80
CCNC(=O)NC1CCCc2cc(C3=NOC(c4cc(C(F)(F)F)cc(C(F)(F)F)c4)(C(F)(F)F)C3)ccc21 (stereo not drawn) [Example 3-307] | ≥ 98 | ≥ 80 | ≥ 80 | ≥ 80 | ≥ 80
O=C(CC(F)(F)F)NC1CCCc2cc(C3=NCC(c4cc(Cl)cc(Cl)c4)(C(F)(F)F)C3)ccc21 (stereo not drawn) [Example 3-323] | ≥ 98 | ≥ 80 | ≥ 80 | ≥ 80 | ≥ 80
CCNC(=O)NC1CCCc2cc(C3=NCC(c4cc(Cl)cc(Cl)c4)(C(F)(F)F)C3)ccc21 (stereo not drawn) [Example 3-326] | ≥ 98 | ≥ 80 | ≥ 80 | ≥ 80 | ≥ 80
CC(=O)NC1CCCc2cc(C3=NCC(c4cc(Cl)c(Cl)c(Cl)c4)(C(F)(F)F)C3)ccc21 (stereo not drawn) [Example 3-355] | ≥ 98 | ≥ 80 | ≥ 80 | ≥ 80 | ≥ 80
O=C(CC(F)(F)F)NC1CCCc2cc(C3=NCC(c4cc(Cl)c(Cl)c(Cl)c4)(C(F)(F)F)C3)ccc21 (stereo not drawn) [Example 3-358] | ≥ 98 | ≥ 80 | ≥ 80 | ≥ 80 | ≥ 80
CCNC(=O)NC1CCCc2cc(C3=NCC(c4cc(Cl)c(Cl)c(Cl)c4)(C(F)(F)F)C3)ccc21 (stereo not drawn) [Example 3-361] | ≥ 98 | ≥ 80 | ≥ 80 | ≥ 80 | ≥ 80
O=C(NCC1CC1)N1CCc2cc(C3=NOC(c4cc(Cl)cc(Cl)c4)(C(F)(F)F)C3)ccc21 (stereo not drawn) [Example 3-642] | ≥ 98 | ≥ 80 | ≥ 80 | ≥ 80 | ≥ 80
O=C(NCc1ccccn1)N1CCc2cc(C3=NOC(c4cc(Cl)cc(Cl)c4)(C(F)(F)F)C3)ccc21 (stereo not drawn) [Example 3-644] | ≥ 98 | ≥ 80 | ≥ 80 | ≥ 80 | ≥ 80
FC(F)(F)C1(c2cc(Cl)cc(Cl)c2)CC(c2ccc3c(c2)CCCC3NC2=NCCO2)=NO1 (stereo not drawn) [Example 3-829] | ≥ 98 | ≥ 80 | ≥ 80 | ≥ 80 | ≥ 80
CN(C)C(=O)NC1CCc2cc(C3=NOC(c4cc(C(F)(F)F)cc(C(F)(F)F)c4)(C(F)(F)F)C3)ccc21 (stereo not drawn) [Example 3-832] | ≥ 98 | ≥ 80 | ≥ 80 | ≥ 80 | ≥ 80
O=C(NC1CCc2cc(C3=NOC(c4cc(C(F)(F)F)cc(C(F)(F)F)c4)(C(F)(F)F)C3)ccc21)c1ccccc1Cl (stereo not drawn) [Example 3-833] | ≥ 98 | ≥ 80 | ≥ 80 | ≥ 80 | ≥ 80
O=C(NC1CCc2cc(C3=NOC(c4cc(C(F)(F)F)cc(C(F)(F)F)c4)(C(F)(F)F)C3)ccc21)C1CCC1 (stereo not drawn) [Example 3-835] | ≥ 98 | ≥ 80 | ≥ 80 | ≥ 80 | ≥ 80
O=C(NCC(F)(F)F)NC1CCc2cc(C3=NOC(c4cc(C(F)(F)F)cc(C(F)(F)F)c4)(C(F)(F)F)C3)ccc21 (stereo not drawn) [Example 3-836] | ≥ 98 | ≥ 80 | ≥ 80 | ≥ 80 | ≥ 80
O=C(NC1CC1)NC1CCc2cc(C3=NOC(c4cc(C(F)(F)F)cc(C(F)(F)F)c4)(C(F)(F)F)C3)ccc21 (stereo not drawn) [Example 3-838] | ≥ 98 | ≥ 80 | ≥ 80 | ≥ 80 | ≥ 80
